From PubChem BioAssay AID192 (DTP/NCI, 2004)
The list shows only some results of the screen, not a fair sample: it gathers tests that were run many times, whatever their T/C, doses with no T/C, and many T/C values between a quarter and a half above the control. Further doses and runs are listed elsewhere. T/C gives the treated animals as a percentage of the vehicle group. Some doses have a count of surviving animals in place of a T/C: the source files T/C as zero there, which appears to mark a toxic dose or a test without result, not a measured value. Some survivor counts are full or nearly so, which does not show that the dose was tolerated: survival well below the control is almost never listed, so the zero probably covers shortened survival too. Survivors were counted at the toxicity check, usually on the fifth day, unless a day is given; later deaths do not show. Schedule codes are those of the source, read here as Q, the interval in days (D) or hours (H), X, the number of doses. Where survival is the endpoint, this PubChem deposit counts one and a half times the control or more as active, and values a quarter to a half above the control carry no call in these data; other NCI protocols may use other cut-offs. Some doses were run more than once; their values stand side by side, smallest first. Some T/C values carry the count of animals alive at the toxicity check (mostly the fifth day); without a count, all were alive then.

Tested on: BDF1 mice, B16 melanoma ip, median survival T/C
Assay: NCI In Vivo Anticancer Drug Screen. Data for tumor model B16 Melanoma (intraperitoneal) in B6D2F1 (BDF1) mice
Details: T/C endpoint: median survival time, higher T/C = longer survival
Method in brief: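 In this screen, activity was judged from survival or tumor size in treated versus vehicle-treated tumor-bearing mice, reported as T/C.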

[1] = dose: 100.0 mg/kg/injection, schedule: Q01DX009 (ip), vehicle: saline with Tween-80
[2] = dose: 200.0 mg/kg/injection, schedule: Q01DX009 (ip), vehicle: saline with Tween-80
[3] = dose: 100.0 mg/kg/injection, schedule: Q01DX009 (ip), vehicle: Klucel (hydroxypropylcellulose) (HPC)

SMILES: O=[N+]([O-])c1ccc(Cl)c2c([N+](=O)[O-])cccc12
- survivor count [1]: 10 of 10
- survivor count [2]: 10 of 10

SMILES: CCOc1ccc(C(C)c2cc3c(cc2OC)OCO3)cc1 (stereo not given)
- T/C (dose: 50.0 mg/kg/injection, schedule: Q01DX009 (ip), vehicle: distilled water + Tween-80): 125 % of control
- T/C (dose: 100.0 mg/kg/injection, schedule: Q01DX009 (ip), vehicle: distilled water + Tween-80): 132 % of control
- T/C (dose: 200.0 mg/kg/injection, schedule: Q01DX009 (ip), vehicle: distilled water + Tween-80): 142 % of control [9 of 10 alive]

SMILES: C1CC[N-]CC1.C1CC[N-]CC1.CS(C)=O.[Cl][Rh]([Cl])[Cl]
- survivor count (dose: 20.0 mg/kg/injection, schedule: Q01DX009 (ip), vehicle: saline with Tween-80): 4 of 10
- survivor count (dose: 40.0 mg/kg/injection, schedule: Q01DX009 (ip), vehicle: saline with Tween-80): 1 of 10

SMILES: C1CN2CCC1CC2
- survivor count (dose: 25.0 mg/kg/injection, schedule: Q01DX009 (ip), vehicle: saline with Tween-80): 0 of 10
- survivor count (dose: 50.0 mg/kg/injection, schedule: Q01DX009 (ip), vehicle: saline with Tween-80): 10 of 10
- survivor count [1]: 3 of 10
- survivor count [2]: 0 of 10

SMILES: CC(C)C(=O)NNCc1ccccc1
- survivor count [3]: 9 of 10

SMILES: O=C(/C=C/C(=O)Oc1ccc(Cl)cc1)Oc1ccc(Cl)cc1
- survivor count (dose: 400.0 mg/kg/injection, schedule: Q01DX009 (ip), vehicle: Klucel (hydroxypropylcellulose) (HPC)): 10 of 10

SMILES: OC[CH2][Hg][Br]
- survivor count (dose: 6.0 mg/kg/injection, schedule: Q01DX009 (ip), vehicle: saline): 5 of 10

SMILES: COC(=O)C(F)C(Br)C(=O)OC (stereo not given)
- survivor count [1]: 6 of 10

SMILES: CC1(C)N=C(N)N=C(N)N1c1ccc(CNC(=O)Nc2cccc(S(=O)(=O)F)c2)cc1
- T/C (dose: 100.0 mg/kg/injection, schedule: Q04DX003 (ip), vehicle: saline): 138 % of control
- T/C (dose: 150.0 mg/kg/injection, schedule: Q04DX003 (ip), vehicle: saline): 128 % of control
- T/C (dose: 225.0 mg/kg/injection, schedule: Q04DX003 (ip), vehicle: saline): 143 % of control

SMILES: CS(=O)(=O)OCCN(CCOS(C)(=O)=O)c1ccc(C=Nc2ccc(-c3csc(Cc4ccccc4)n3)cc2)c(Cl)c1
- T/C (dose: 12.5 mg/kg/injection, schedule: Q01DX009 (ip), vehicle: Klucel (hydroxypropylcellulose) (HPC)): 128 % of control
- T/C (dose: 25.0 mg/kg/injection, schedule: Q01DX009 (ip), vehicle: Klucel (hydroxypropylcellulose) (HPC)): 132 and 142 % of control

SMILES: CN=C(N)N/N=C(\C)c1ccc2oc3ccc(/C(C)=N/NC(N)=NC)cc3c2c1
- survivor count [1]: 4 of 10
- survivor count [2]: 0 of 10

SMILES: COC(=O)/C(C)=C/C=C/C(OC)C(OC(N)=O)/C(C)=C/C(C)C(O)C(CC(C)CC1=C(N)C(=O)C=C(N)C1=O)OC (stereo not given)
- survivor count (dose: 200.0 mg/kg/injection, schedule: Q01DX005 (ip), vehicle: other): 10 of 10

SMILES: O=C(OCCOCCOCCOC(=O)c1ccccc1)c1ccccc1
- T/C [3]: 126 % of control [9 of 10 alive]
- T/C (dose: 200.0 mg/kg/injection, schedule: Q01DX009 (ip), vehicle: Klucel (hydroxypropylcellulose) (HPC)): 126 % of control

SMILES: CCC(CC)c1ccccn1
- survivor count (dose: 400.0 mg/kg/injection, schedule: Q01DX009 (ip), vehicle: carboxymethylcellulose (CMC)): 3 of 10

SMILES: CN1CCc2cc3c(cc2C1)OCO3
- survivor count (dose: 200.0 mg/kg/injection, schedule: Q01DX009 (ip), vehicle: saline): 0 of 10

SMILES: CC(CN1CCN(CCOCCO)CC1)CN1c2ccccc2Sc2ccc(Cl)cc21 (stereo not given)
- survivor count (dose: 12.5 mg/kg/injection, schedule: Q01DX009 (ip), vehicle: saline): 10 of 10
- survivor count (dose: 25.0 mg/kg/injection, schedule: Q01DX009 (ip), vehicle: saline): 8 of 10
- survivor count (dose: 50.0 mg/kg/injection, schedule: Q01DX009 (ip), vehicle: saline): 8 of 10
